According to patent publication US20180333455A1:
Results are given in words; binding and its absence hold for the method and conditions named. Some binding calls cover weakened binding; strength is not graded here.

What was measured:
β-dystroglycan (mouse) = target: T1, β-dystroglycan (mouse) (UniProt Q62165); assay: FITC-TCAP-1 binding assay with β-DG immunohistochemistry on mouse gastrocnemius sections
T1 sequence (looked up): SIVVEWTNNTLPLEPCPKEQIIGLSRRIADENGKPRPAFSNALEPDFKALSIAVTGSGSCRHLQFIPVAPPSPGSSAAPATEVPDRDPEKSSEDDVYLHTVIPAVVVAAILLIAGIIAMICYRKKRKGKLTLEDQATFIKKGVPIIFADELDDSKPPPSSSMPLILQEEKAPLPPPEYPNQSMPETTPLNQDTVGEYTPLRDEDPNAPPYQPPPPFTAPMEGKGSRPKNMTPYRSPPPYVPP

latrophilin-1 (mouse) [1] = target: T2, latrophilin-1 (mouse) (UniProt Q80TR1); assay: fluorescence co-localization on Hypo E-38 cells (FIG. 10B legend)
T2 sequence (looked up): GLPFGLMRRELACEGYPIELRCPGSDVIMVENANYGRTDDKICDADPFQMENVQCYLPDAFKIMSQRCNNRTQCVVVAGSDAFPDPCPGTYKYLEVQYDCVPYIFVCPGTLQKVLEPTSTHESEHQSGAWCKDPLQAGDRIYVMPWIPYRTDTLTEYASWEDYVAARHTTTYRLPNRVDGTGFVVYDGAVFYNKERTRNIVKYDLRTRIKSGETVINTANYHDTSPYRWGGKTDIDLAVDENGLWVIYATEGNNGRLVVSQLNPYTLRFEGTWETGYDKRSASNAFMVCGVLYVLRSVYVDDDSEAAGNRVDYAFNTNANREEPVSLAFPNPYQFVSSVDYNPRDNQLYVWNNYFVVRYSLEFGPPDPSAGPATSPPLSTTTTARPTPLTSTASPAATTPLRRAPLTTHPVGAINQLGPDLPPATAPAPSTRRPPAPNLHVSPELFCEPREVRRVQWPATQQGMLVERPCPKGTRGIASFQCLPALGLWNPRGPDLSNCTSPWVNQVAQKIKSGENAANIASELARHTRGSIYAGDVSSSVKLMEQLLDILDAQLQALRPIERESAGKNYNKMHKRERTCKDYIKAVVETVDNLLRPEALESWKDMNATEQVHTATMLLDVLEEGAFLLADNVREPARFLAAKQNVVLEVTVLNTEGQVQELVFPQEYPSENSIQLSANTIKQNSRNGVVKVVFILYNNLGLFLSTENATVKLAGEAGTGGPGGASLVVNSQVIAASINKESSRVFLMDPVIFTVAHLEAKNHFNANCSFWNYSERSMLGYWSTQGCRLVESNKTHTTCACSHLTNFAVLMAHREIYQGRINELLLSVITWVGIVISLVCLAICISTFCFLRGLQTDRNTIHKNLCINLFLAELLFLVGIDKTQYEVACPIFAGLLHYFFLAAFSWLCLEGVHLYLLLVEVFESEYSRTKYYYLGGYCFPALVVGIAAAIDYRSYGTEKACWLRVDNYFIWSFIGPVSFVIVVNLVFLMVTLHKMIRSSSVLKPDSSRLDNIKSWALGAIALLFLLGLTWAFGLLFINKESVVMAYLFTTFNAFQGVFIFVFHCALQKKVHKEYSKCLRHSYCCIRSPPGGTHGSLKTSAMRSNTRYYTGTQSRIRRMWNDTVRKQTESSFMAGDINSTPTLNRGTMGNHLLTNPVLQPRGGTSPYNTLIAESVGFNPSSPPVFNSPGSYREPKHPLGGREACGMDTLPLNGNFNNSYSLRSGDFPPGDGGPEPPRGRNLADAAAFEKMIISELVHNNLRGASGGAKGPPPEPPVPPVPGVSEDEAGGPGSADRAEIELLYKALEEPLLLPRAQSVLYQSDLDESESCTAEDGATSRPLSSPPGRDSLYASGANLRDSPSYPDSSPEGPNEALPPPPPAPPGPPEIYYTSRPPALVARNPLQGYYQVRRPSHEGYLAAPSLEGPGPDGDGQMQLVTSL

latrophilin-1 (mouse) [2] = target: T2, latrophilin-1 (mouse); assay: fluorescence co-localization of FITC-TCAP-1 with latrophilin-1 immunoreactivity on Hypo E-38 cells

Measured: binding

QQLLGTGKVQGYDGYFVLSVEQYLELSDSANNIHFMRQSEI (FITC conjugated to the primary amine of the lysine group (K8)) [FITC-[K8]-TCAP-1]
binds: all assays above
